Our source for the binding values is PMC7205469.

By UniProt entry, the sequences of proteins in these tests, tags left out.
UniProt Q9Z0E3: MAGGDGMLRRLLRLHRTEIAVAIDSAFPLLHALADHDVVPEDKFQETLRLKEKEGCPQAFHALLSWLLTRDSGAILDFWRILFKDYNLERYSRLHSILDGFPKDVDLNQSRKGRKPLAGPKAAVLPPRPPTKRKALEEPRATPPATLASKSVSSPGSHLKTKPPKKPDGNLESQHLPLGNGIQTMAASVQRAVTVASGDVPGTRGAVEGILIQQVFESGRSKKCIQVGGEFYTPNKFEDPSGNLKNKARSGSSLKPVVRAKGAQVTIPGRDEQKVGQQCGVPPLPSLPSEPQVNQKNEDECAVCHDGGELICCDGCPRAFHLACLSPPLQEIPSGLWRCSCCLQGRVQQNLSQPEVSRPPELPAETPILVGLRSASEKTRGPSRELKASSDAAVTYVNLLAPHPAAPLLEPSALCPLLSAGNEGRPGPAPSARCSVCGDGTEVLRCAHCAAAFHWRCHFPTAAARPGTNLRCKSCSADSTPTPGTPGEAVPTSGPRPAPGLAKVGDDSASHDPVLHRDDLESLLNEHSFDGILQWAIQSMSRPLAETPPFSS

The target in assay [1] is T1, endogenous CLP1 (human (endogenous in HEK293)) (UniProt Q92989).
T1 sequence: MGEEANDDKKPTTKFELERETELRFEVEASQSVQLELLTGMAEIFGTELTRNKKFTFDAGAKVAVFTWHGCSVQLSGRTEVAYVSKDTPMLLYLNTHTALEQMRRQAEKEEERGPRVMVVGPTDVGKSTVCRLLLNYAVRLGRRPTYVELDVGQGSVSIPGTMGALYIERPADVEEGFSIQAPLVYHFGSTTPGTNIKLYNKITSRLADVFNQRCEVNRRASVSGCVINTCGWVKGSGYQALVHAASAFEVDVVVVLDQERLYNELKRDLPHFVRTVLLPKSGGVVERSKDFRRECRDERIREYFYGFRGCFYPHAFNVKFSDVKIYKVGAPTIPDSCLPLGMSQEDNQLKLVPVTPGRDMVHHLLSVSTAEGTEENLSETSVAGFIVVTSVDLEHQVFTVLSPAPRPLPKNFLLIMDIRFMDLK
In words: co-IP; nuclear proteins of Aire-transfected HEK293 cells (Universal Magnetic Co-IP Kit); incubated with anti-CLP1 or Flag-tag M2 antibody for 4 hr, then Protein-G magnetic beads for 1 hr at 4°C; four washes; western blot.

For another assay, the target named is Flag-tagged Aire (mouse) (UniProt Q9Z0E3). Described as above.

No constants are given. Whether binding was seen depends on the method and setting. Binding seen in cells or lysates may run through a third protein.

Regarding “Flag-tagged Aire (from UniProt Q9Z0E3 1-552)”, the binding entry in assay [1] is on record as “no binding”.

B1: endogenous CLP1 (protein, UniProt Q92989 1-425)
chain: MGEEANDDKKPTTKFELERETELRFEVEASQSVQLELLTGMAEIFGTELTRNKKFTFDAGAKVAVFTWHGCSVQLSGRTEVAYVSKDTPMLLYLNTHTALEQMRRQAEKEEERGPRVMVVGPTDVGKSTVCRLLLNYAVRLGRRPTYVELDVGQGSVSIPGTMGALYIERPADVEEGFSIQAPLVYHFGSTTPGTNIKLYNKITSRLADVFNQRCEVNRRASVSGCVINTCGWVKGSGYQALVHAASAFEVDVVVVLDQERLYNELKRDLPHFVRTVLLPKSGGVVERSKDFRRECRDERIREYFYGFRGCFYPHAFNVKFSDVKIYKVGAPTIPDSCLPLGMSQEDNQLKLVPVTPGRDMVHHLLSVSTAEGTEENLSETSVAGFIVVTSVDLEHQVFTVLSPAPRPLPKNFLLIMDIRFMDLK
Take B1: the binding entry with Flag-tagged Aire (mouse) is “no binding”.
